PubChem BioAssay AID1224826 – NIAID | 2016
Assay: 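Knock-downs that raise or lower Tnf reporter signal after endotoxin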 (primary screen). Cell system: RAW264.7 G9 macrophages from mouse bearing reporters for p65 (GFP) and the Tnf promoter (mCherry). Knock-down reagent: siRNA pool against mouse genes, 100 nM. Timing: 16 h of LPS stimulation, after 2 days of siRNA transfection. Challenge: bacterial lipopolysaccharide (Salmonella minnesota R595), 10 ng/ml. Read-out: 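Nuclear mCherry signal of the Tnf promoter reporter measured by imaging after background removal, scaled to each plate median and turned into robust z-scores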. Reading the numbers: Tnf reporter robust z-score: higher = stronger Tnf promoter reporter signal after LPS. Hit rule: 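Called active when robust z-score is at most -1.3, matching the median of the Tlr4 knock-down control, or over 3; control wells and wells with under 50 cells never active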. Calls: active = Tnf reporter clearly lowered or raised; inactive = no clear change in Tnf reporter.
The whole screen tested about 17,000 reagents; shown is an unselected part. About 1,110 of all reagents (6.6%) were called active. 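Active means lowered or raised reporter signal; replicate intensities are raw and not normalised per plate.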 Not all columns of the deposit are shown.

Ell3
- Tnf reporter robust z-score: -0.42
- fewer than 50 cells in well: enough cells in well
- Outcome: inactive

Dync1i1
- Tnf reporter robust z-score: -0.37
- fewer than 50 cells in well: enough cells in well
- Outcome: inactive

Cpa3
- Tnf reporter robust z-score: -1.02
- fewer than 50 cells in well: enough cells in well
- Outcome: inactive

Tbc1d10a
- fewer than 50 cells in well: fewer than 50 cells per well; well left out of calls
- Outcome: inactive

Aicda
- Tnf reporter robust z-score: -0.69
- fewer than 50 cells in well: enough cells in well
- Outcome: inactive

Uts2r
- Tnf reporter robust z-score: 0.54
- fewer than 50 cells in well: enough cells in well
- Outcome: inactive

Spaca1
- fewer than 50 cells in well: fewer than 50 cells per well; well left out of calls
- Outcome: inactive

Cemip
- Tnf reporter robust z-score: -1.59
- fewer than 50 cells in well: enough cells in well
- Outcome: active

Rbm17
- Tnf reporter robust z-score: 1.09
- fewer than 50 cells in well: enough cells in well
- Outcome: inactive

Or6ae1
- fewer than 50 cells in well: fewer than 50 cells per well; well left out of calls
- Outcome: inactive

Ap5z1
- fewer than 50 cells in well: fewer than 50 cells per well; well left out of calls
- Outcome: inactive

Bcs1l
- Tnf reporter robust z-score: -0.97
- fewer than 50 cells in well: enough cells in well
- Outcome: inactive

Entries above whose gene name starts with A or a (2):
Aicda
- Tnf reporter robust z-score: -0.69
- fewer than 50 cells in well: enough cells in well
- Outcome: inactive

Ap5z1
- fewer than 50 cells in well: fewer than 50 cells per well; well left out of calls
- Outcome: inactive
